Results are given in words; binding and its absence hold for the method and conditions named. In cells and extracts the contact can be indirect. Some binding calls cover weakened binding; strength is not graded here. Where a sequence is shown, tags or fusion partners need not be part of it.
Molecular target: T1, CSCC3: AtSCC3 fused with the C-terminal of LUC (Arabidopsis thaliana) (UniProt O82265)
T1 sequence: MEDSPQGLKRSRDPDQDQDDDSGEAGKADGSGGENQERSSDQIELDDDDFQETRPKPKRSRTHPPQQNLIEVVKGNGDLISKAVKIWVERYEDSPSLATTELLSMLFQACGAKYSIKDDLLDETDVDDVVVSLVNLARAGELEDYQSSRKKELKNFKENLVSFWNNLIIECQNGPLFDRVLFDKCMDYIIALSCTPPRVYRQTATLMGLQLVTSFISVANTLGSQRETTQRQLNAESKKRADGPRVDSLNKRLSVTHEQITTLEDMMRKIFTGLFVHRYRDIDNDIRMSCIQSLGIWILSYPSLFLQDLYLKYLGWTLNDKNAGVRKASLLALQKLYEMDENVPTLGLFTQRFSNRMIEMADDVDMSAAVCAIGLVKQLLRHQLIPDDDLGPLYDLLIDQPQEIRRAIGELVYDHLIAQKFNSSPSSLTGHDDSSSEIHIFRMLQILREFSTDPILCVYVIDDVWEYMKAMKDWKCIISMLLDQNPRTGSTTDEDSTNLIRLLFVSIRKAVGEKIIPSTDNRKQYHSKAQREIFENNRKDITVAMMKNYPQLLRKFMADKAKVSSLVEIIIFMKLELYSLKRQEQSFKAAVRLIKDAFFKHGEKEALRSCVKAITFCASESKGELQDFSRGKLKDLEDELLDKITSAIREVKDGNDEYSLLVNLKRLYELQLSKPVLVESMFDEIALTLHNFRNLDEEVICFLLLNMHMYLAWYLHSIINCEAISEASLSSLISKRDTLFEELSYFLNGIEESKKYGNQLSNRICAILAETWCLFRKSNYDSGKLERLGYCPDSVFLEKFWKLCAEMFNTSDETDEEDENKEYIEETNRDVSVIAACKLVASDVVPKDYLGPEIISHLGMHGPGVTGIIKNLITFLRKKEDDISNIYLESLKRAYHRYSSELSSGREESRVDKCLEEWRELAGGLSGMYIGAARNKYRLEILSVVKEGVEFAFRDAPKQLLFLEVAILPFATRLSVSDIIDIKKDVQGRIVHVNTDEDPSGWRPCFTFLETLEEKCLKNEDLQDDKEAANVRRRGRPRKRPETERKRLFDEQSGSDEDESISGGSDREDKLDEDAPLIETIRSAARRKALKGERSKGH
Experiment: split reporter; firefly luciferase complementation imaging; N- and C-terminal LUC fragment fusions co-infiltrated into N. benthamiana leaves, imaged 48 h later with luciferin

B1: AtRING1A, LUC-fragment fusion (protein, UniProt Q9FKW0 1-522)
chain: MSVKNNSFSSAEIPDVADQPRDRFNPEATQDLQEKDETKEEKEGDEEVKHDEAEEDQEVVKPNDAEEDDDGDDAEEDEEEEVEAEEDEEAEEEEEEEEEEEEEEEDSKERSPSSISGDQSEFMEIDLGEIRKDVQCPICLGIIKKTRTVMECLHRFCRECIDKSMRLGNNECPACRKHCASRRSLRDDPKFDALIAALFTNIDSYEEEELAFHEDEMARNKQIQASIAQISQRQSEALVKRRSLGKEAAVLMRSPRIASGSRRRRNSRNMEQQNASEAHEDDDNDDNNNRGRDKDSSSDERGTEVRQKKRRKRSTSRSTQHPSSSGANKNNGNCADNDTEVYRDTKGISPGLVWNPEILAWGRGGTRSNTRHGNNTSGGSSKSVRNARVNKLVEYLRSSVDGSSVELDIHVKLVSLDTKCIPDLPQPYLCCRPTLLVKQLREFVALQIHLKTEEVELLVTRRRVGEDAAIENLPAVTPASAAASKDEMLSLEDNETLSRLKIDFISSHEQHLIIAYRKKQTE
binding: binds

— PMC9984397
